Measured values: the supplement of paper PMC8728848
This is one part of the list.

Key:
Assay in all cases: glycan array binding signal (z-score within array); higher = stronger binding
Conditions in all cases: glycan notation: IUPAC condensed, linker removed
Gal3S(b1-3)GlcNAc = target: Gal3S(b1-3)GlcNAc
Method in brief: (§1)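 The binding signal is a Z-score computed within each array and averaged over linkers. Arrays of the same protein sequence at different concentrations or buffers were also averaged together. Data originate from 3228 arrays in the Consortium for Functional Glycomics database, kept only where the protein sequence was available.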

[1] = target: Gal3S(b1-3)[Fuc(a1-4)]GlcNAc
Method in brief: as §1

Gal3S(b1-4)Glc = target: Gal3S(b1-4)Glc
Method in brief: as §1

Gal3S(b1-4)Glc6S = target: Gal3S(b1-4)Glc6S
Method in brief: as §1

Gal3S(b1-4)GlcNAc = target: Gal3S(b1-4)GlcNAc
Method in brief: as §1

Gal3S(b1-4)GlcNAc6S = target: Gal3S(b1-4)GlcNAc6S
Method in brief: as §1

[2] = target: Gal3S(b1-4)[Fuc(a1-3)]Glc
Method in brief: as §1

[3] = target: Gal3S(b1-4)[Fuc(a1-3)]Glc6S
Method in brief: as §1

Gal3S4S(b1-4)GlcNAc = target: Gal3S4S(b1-4)GlcNAc
Method in brief: as §1

Gal3S6S(b1-4)GlcNAc = target: Gal3S6S(b1-4)GlcNAc
Method in brief: as §1

Gal3S6S(b1-4)GlcNAc6S = target: Gal3S6S(b1-4)GlcNAc6S
Method in brief: as §1

Gal4S(b1-4)GlcNAc = target: Gal4S(b1-4)GlcNAc
Method in brief: as §1

Gal4S6S(b1-4)GlcNAc = target: Gal4S6S(b1-4)GlcNAc
Method in brief: as §1

Gal6P(b1-4)GlcNAc = target: Gal6P(b1-4)GlcNAc
Method in brief: as §1

Gal6S(b1-3)GlcNAc = target: Gal6S(b1-3)GlcNAc
Method in brief: as §1

Gal6S(b1-3)GlcNAc6S = target: Gal6S(b1-3)GlcNAc6S
Method in brief: as §1

Gal6S(b1-4)Glc = target: Gal6S(b1-4)Glc
Method in brief: as §1

Gal6S(b1-4)Glc6S = target: Gal6S(b1-4)Glc6S
Method in brief: as §1

Gal6S(b1-4)GlcNAc = target: Gal6S(b1-4)GlcNAc
Method in brief: as §1

Gal6S(b1-4)GlcNAc6S = target: Gal6S(b1-4)GlcNAc6S
Method in brief: as §1

GalNAc(a1-3)Gal = target: GalNAc(a1-3)Gal
Method in brief: as §1

GalNAc(a1-3)GalNAc = target: GalNAc(a1-3)GalNAc
Method in brief: as §1

[4] = target: GalNAc(a1-3)GalNAc(b1-3)Gal(a1-4)Gal(b1-4)Glc
Method in brief: as §1

[5] = target: GalNAc(a1-3)GalNAc(b1-3)Gal(a1-4)Gal(b1-4)GlcNAc
Method in brief: as §1

GalNAc(b1-3)Gal = target: GalNAc(b1-3)Gal
Method in brief: as §1

[6] = target: GalNAc(b1-3)Gal(a1-4)Gal(b1-4)GlcNAc
Method in brief: as §1

[7] = target: GalNAc(b1-3)Gal(a1-4)Gal(b1-4)GlcNAc(b1-3)Gal(b1-4)Glc
Method in brief: as §1

[8] = target: GalNAc(b1-3)Gal(a1-6)Gal(b1-4)Glc
Method in brief: as §1

GalNAc(b1-3)GalNAc = target: GalNAc(b1-3)GalNAc
Method in brief: as §1

GalNAc(b1-4)Gal(b1-4)Glc = target: GalNAc(b1-4)Gal(b1-4)Glc
Method in brief: as §1

GalNAc(b1-4)GlcNAc = target: GalNAc(b1-4)GlcNAc
Method in brief: as §1

[9] = target: GalNAc(b1-4)GlcNAc(b1-2)Man(a1-3)[GalNAc(b1-4)GlcNAc(b1-2)Man(a1-6)]Man(b1-4)GlcNAc(b1-4)GlcNAc
Method in brief: as §1

GalNAc(b1-4)GlcNAc6S = target: GalNAc(b1-4)GlcNAc6S
Method in brief: as §1

GalNAc(b1-6)GalNAc = target: GalNAc(b1-6)GalNAc
Method in brief: as §1

GalNAc3S(b1-4)GlcNAc = target: GalNAc3S(b1-4)GlcNAc
Method in brief: as §1

GalNAc3S(b1-4)GlcNAc3S = target: GalNAc3S(b1-4)GlcNAc3S
Method in brief: as §1

GalNAc4S6S(b1-4)GlcNAc = target: GalNAc4S6S(b1-4)GlcNAc
Method in brief: as §1

GalNAc6S(b1-4)GlcNAc = target: GalNAc6S(b1-4)GlcNAc
Method in brief: as §1

B1: CALR truncated at D342 (Homo sapiens) (protein)
chain: EPAVYFKEQFLDGDGWTSRWIESKHKSDFGKFVLSSGKFYGDEEKDKGLQTSQDARFYALSASFEPFSNKGQTLVVQFTVKHEQNIDCGGGYVKLFPNSLDQTDMHGDSEYNIMFGPDICGPGTKKVHVIFNYKGKNVLINKDIRCKDDEFTHLYTLIVRPDNTYEVKIDNSQVESGSLEDDWDFLPPKKIKDPDASKPEDWDERAKIDDPTDSKPEDWDKPEHIPDPDAKKPEDWDEEMDGEWEPPVIQNPEYKGEWKPRQIDNPDYKGTWIHPEIDNPEYSPDPSIYAYDNFGVLGLDLWQVKSGTIFDNFLITNDEAYAEEFGNETWGVTKAAEKQMKD
B1 was tested, and the “glycan array binding signal (z-score)” value (Gal3S(b1-3)GlcNAc) was -0.799, the “glycan array binding signal (z-score)” value [1] was -0.389 and the “glycan array binding signal (z-score)” value (Gal3S(b1-4)Glc) was -0.903. The “glycan array binding signal (z-score)” value (Gal3S(b1-4)Glc6S) was 0.638, the “glycan array binding signal (z-score)” value (Gal3S(b1-4)GlcNAc) was 0.011 and the “glycan array binding signal (z-score)” value (Gal3S(b1-4)GlcNAc6S) was -0.314. The “glycan array binding signal (z-score)” value [2] was 1.59, the “glycan array binding signal (z-score)” value [3] was -0.427 and the “glycan array binding signal (z-score)” value (Gal3S4S(b1-4)GlcNAc) was 0.455. The “glycan array binding signal (z-score)” value (Gal3S6S(b1-4)GlcNAc) was 0.029, the “glycan array binding signal (z-score)” value (Gal3S6S(b1-4)GlcNAc6S) was -1.08 and the “glycan array binding signal (z-score)” value (Gal4S(b1-4)GlcNAc) was 0.032. The “glycan array binding signal (z-score)” value (Gal4S6S(b1-4)GlcNAc) was -0.41, the “glycan array binding signal (z-score)” value (Gal6P(b1-4)GlcNAc) was 1.27 and the “glycan array binding signal (z-score)” value (Gal6S(b1-3)GlcNAc) was 0.294. For the same binder, the “glycan array binding signal (z-score)” value (Gal6S(b1-3)GlcNAc6S) was 0.101, the “glycan array binding signal (z-score)” value (Gal6S(b1-4)Glc) was -1.17 and the “glycan array binding signal (z-score)” value (Gal6S(b1-4)Glc6S) was -0.868. For the same binder, the “glycan array binding signal (z-score)” value (Gal6S(b1-4)GlcNAc) was -1.33, the “glycan array binding signal (z-score)” value (Gal6S(b1-4)GlcNAc6S) was -1.01 and the “glycan array binding signal (z-score)” value (GalNAc(a1-3)Gal) was 0.292. The “glycan array binding signal (z-score)” value (GalNAc(a1-3)GalNAc) was -0.195, the “glycan array binding signal (z-score)” value [4] was 0.447 and the “glycan array binding signal (z-score)” value [5] was 0.128. The “glycan array binding signal (z-score)” value (GalNAc(b1-3)Gal) was 0.701, the “glycan array binding signal (z-score)” value [6] was -1.14 and the “glycan array binding signal (z-score)” value [7] was -1.18. For the same binder, the “glycan array binding signal (z-score)” value [8] was -0.627, the “glycan array binding signal (z-score)” value (GalNAc(b1-3)GalNAc) was -0.692 and the “glycan array binding signal (z-score)” value (GalNAc(b1-4)Gal(b1-4)Glc) was -0.061. The “glycan array binding signal (z-score)” value (GalNAc(b1-4)GlcNAc) was 1.29, the “glycan array binding signal (z-score)” value [9] was 0.19 and the “glycan array binding signal (z-score)” value (GalNAc(b1-4)GlcNAc6S) was -0.361. For the same binder, the “glycan array binding signal (z-score)” value (GalNAc(b1-6)GalNAc) was -0.211, the “glycan array binding signal (z-score)” value (GalNAc3S(b1-4)GlcNAc) was 1.07 and the “glycan array binding signal (z-score)” value (GalNAc3S(b1-4)GlcNAc3S) was -0.7. The “glycan array binding signal (z-score)” value (GalNAc4S6S(b1-4)GlcNAc) was 0.282 and the “glycan array binding signal (z-score)” value (GalNAc6S(b1-4)GlcNAc) was -0.249.
